Results: patent US20160298165A1 (priority 2013, published 2016)
For at least one compound, name, drawing or mass did not settle the structure.

What was measured:
[1] = tested on: M. tuberculosis Δsdh1 mutant; type: cell-based; conditions: aerobic, at two and five days
[2] = tested on: M. tuberculosis H37Rv rpoB H445R; type: cell-based, Mycobacterium tuberculosis
[3] = tested on: M. tuberculosis Δsdh1 or Δsdh2 mutants; type: cell-based; conditions: hypoxic conditions

SMILES | clearing of the Δsdh1 mutant by single drugs vs parental [1] | RIF MIC [2] [µM] | growth of H37Rv rpoB H445R [2] | killing of Δsdh1 or Δsdh2 mutants compared to the parental strain [3]
CC1COc2c(N3CCN(C)CC3)c(F)cc3c(=O)c(C(=O)O)cn1c23 (centres unmarked) [OFL, ofloxacin] | cleared more rapidly |  |  | 
CO[C@H]1/C=C/O[C@@]2(C)Oc3c(C)c(O)c4c(O)c(c(/C=N/N5CCN(C)CC5)c(O)c4c3C2=O)NC(=O)/C(C)=C\C=C\[C@H](C)[C@H](O)[C@@H](C)[C@@H](O)[C@@H](C)[C@H](OC(C)=O)[C@@H]1C [RIF, Rifampicin] | cleared more rapidly | > 15 | grew well | killed at a reduced rate
